Data as given in article doi:10.1101/583740 (bioRxiv, 2019).
These are yes or no findings as the source states them, for the method shown. Binding seen in cells or lysates may run through a third protein. Some binding calls cover weakened binding; strength is not graded here.

Molecular target: T1, Endogenous SIRT1 (mouse (endogenous in MCF)) (UniProt Q923E4)
T1 sequence: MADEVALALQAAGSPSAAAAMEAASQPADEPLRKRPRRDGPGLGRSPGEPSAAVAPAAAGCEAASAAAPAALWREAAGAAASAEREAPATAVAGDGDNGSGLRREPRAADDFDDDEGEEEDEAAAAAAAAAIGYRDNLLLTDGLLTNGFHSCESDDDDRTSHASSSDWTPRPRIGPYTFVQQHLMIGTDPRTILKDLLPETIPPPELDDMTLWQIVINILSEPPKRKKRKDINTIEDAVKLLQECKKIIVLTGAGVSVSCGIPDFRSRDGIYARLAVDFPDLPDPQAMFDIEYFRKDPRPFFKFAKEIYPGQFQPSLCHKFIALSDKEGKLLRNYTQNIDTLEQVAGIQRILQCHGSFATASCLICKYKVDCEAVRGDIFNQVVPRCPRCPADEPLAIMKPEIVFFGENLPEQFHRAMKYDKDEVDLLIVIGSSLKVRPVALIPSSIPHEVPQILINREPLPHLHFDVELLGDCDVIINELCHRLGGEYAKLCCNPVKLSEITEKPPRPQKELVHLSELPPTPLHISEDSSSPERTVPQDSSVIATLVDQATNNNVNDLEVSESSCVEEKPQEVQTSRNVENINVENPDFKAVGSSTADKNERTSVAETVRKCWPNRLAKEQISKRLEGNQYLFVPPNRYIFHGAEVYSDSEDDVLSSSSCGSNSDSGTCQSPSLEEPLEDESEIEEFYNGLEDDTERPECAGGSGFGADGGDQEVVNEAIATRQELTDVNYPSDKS
Assay: co-IP

- binding: binds
B1: Endogenous TRPC3 (protein, UniProt Q9QZC1 1-910)
chain: MSTKVKKCREPARVTLPAPEEEEDGEAEGGESQRRRRGWRGVNGGLEPPCPRAPPSPGPDASSEGSPSRWRTAGMRDKGRRQAVRGPAFMFGARGPSLTAEEERFLDAAEYGNIPVVRKMLEESRTLNVNCVDYMGQNALQLAVGNEHLEVTELLLKKENLARIGDALLLAISKGYVRIVEAILGHPGFAASRRLTLSPCEQELRDDDFYAYDEDGTRFSPDITPIILAAHCHKYEVVHLLLLKGARIERPHDYFCRCSDCAEKQRLDAFSHSRSRINAYKGLASPAYLSLSSEDPVLTALELSNELAKLANIEKEFKNDYRKLSMQCKDFVVGVLDLCRDSEEVEAILNGDLESAEPLERHGHKASLSRVKLAIKYEVKKFVAHPNCQQQLLTIWYENLSGLREQTIAIKCLVVLVVALGLPFLAIGYWIAPCSRLGKILRSPFMKFVAHAASFIIFLGLLVFNASDRFEGITTLPNITVIDYPKQIFRVKTTQFTWTEMLIMVWVLGMMWSECKELWLEGPREYIVQLWNVLDFGMLSIFIAAFTARFLAFLQATKAQQYVDSHVQESDLSEVTLPPEVQYFTYARDKWLPSDPQIISEGLYAIAVVLSFSRIAYILPANESFGPLQISLGRTVKDIFKFMVLFIMVFLAFMIGMFILYSYYLGAKVNPAFTTVEESFKTLFWSIFGLSEVTSVVLKYDHKFIENIGYVLYGIYNVTMVVVLLNMLIAMINSSYQEIEDDSDVEWKFARSKLWLSYFDDGKTLPPPFSLVPSPKSFVYFIMRITNFSKCRRRRLQKDLELGMGNSKSRLNLFTQSNSRVFESHSFNSILNQPTRYQQIMKRLIKRYVLKAQVDKENDEVNEGELKEIKQDISSLRYELLEDKSQATEELAILIHKLSEKLNPSVLRCE
